Results are given in words; binding and its absence hold for the method and conditions named. Some entries that bind do so weakly or less than the wild type.
Biological target: T1, full-length FLRT3 expressed on HEK293T cells (UniProt Q9NZU0)
T1 sequence: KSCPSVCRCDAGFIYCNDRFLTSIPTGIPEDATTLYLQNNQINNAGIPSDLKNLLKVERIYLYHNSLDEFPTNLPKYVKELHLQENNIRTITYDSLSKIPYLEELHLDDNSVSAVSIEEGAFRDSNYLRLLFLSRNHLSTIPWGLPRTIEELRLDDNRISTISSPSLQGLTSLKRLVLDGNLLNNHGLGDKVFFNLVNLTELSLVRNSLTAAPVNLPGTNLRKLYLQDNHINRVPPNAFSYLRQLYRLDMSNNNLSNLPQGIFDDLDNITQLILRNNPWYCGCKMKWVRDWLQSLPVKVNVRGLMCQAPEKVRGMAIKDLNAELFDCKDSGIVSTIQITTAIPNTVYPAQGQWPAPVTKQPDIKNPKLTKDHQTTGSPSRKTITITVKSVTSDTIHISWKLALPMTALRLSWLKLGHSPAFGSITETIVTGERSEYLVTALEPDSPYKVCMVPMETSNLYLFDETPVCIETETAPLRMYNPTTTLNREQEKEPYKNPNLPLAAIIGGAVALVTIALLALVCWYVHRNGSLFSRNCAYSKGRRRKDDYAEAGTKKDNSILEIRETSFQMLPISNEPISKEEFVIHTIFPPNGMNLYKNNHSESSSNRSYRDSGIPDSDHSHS
Assay: cell aggregation assay; two populations of HEK293T cells, each expressing one full-length protein (with GFP or dsRed), mixed 1:1 in DMEM with 10% FBS, 10 mM CaCl2, 10 mM MgCl2, with 5 µM sAB or HBS, 10 min at 27 °C, 120 rpm; aggregation index from images

binding: binds
B1: full-length ADGRL3 expressed on HEK293T cells (receptor, UniProt Q9HAR2 20-1447)
chain: FSRAPIPMAVVRRELSCESYPIELRCPGTDVIMIESANYGRTDDKICDSDPAQMENIRCYLPDAYKIMSQRCNNRTQCAVVAGPDVFPDPCPGTYKYLEVQYECVPYKVEQKVFLCPGLLKGVYQSEHLFESDHQSGAWCKDPLQASDKIYYMPWTPYRTDTLTEYSSKDDFIAGRPTTTYKLPHRVDGTGFVVYDGALFFNKERTRNIVKFDLRTRIKSGEAIIANANYHDTSPYRWGGKSDIDLAVDENGLWVIYATEQNNGKIVISQLNPYTLRIEGTWDTAYDKRSASNAFMICGILYVVKSVYEDDDNEATGNKIDYIYNTDQSKDSLVDVPFPNSYQYIAAVDYNPRDNLLYVWNNYHVVKYSLDFGPLDSRSGQAHHGQVSYISPPIHLDSELERPSVKDISTTGPLGMGSTTTSTTLRTTTLSPGRSTTPSVSGRRNRSTSTPSPAVEVLDDMTTHLPSASSQIPALEESCEAVEAREIMWFKTRQGQIAKQPCPAGTIGVSTYLCLAPDGIWDPQGPDLSNCSSPWVNHITQKLKSGETAANIARELAEQTRNHLNAGDITYSVRAMDQLVGLLDVQLRNLTPGGKDSAARSLNKAMVETVNNLLQPQALNAWRDLTTSDQLRAATMLLHTVEESAFVLADNLLKTDIVRENTDNIKLEVARLSTEGNLEDLKFPENMGHGSTIQLSANTLKQNGRNGEIRVAFVLYNNLGPYLSTENASMKLGTEALSTNHSVIVNSPVITAAINKEFSNKVYLADPVVFTVKHIKQSEENFNPNCSFWSYSKRTMTGYWSTQGCRLLTTNKTHTTCSCNHLTNFAVLMAHVEVKHSDAVHDLLLDVITWVGILLSLVCLLICIFTFCFFRGLQSDRNTIHKNLCISLFVAELLFLIGINRTDQPIACAVFAALLHFFFLAAFTWMFLEGVQLYIMLVEVFESEHSRRKYFYLVGYGMPALIVAVSAAVDYRSYGTDKVCWLRLDTYFIWSFIGPATLIIMLNVIFLGIALYKMFHHTAILKPESGCLDNIKSWVIGAIALLCLLGLTWAFGLMYINESTVIMAYLFTIFNSLQGMFIFIFHCVLQKKVRKEYGKCLRTHCCSGKSTESSIGSGKTSGSRTPGRYSTGSQSRIRRMWNDTVRKQSESSFITGDINSSASLNREGLLNNARDTSVMDTLPLNGNHGNSYSIASGEYLSNCVQIIDRGYNHNETALEKKILKELTSNYIPSYLNNHERSSEQNRNLMNKLVNNLGSGREDDAIVLDDATSFNHEESLGLELIHEESDAPLLPPRVYSTENHQPHHYTRRRIPQDHSESFFPLLTNEHTEDLQSPHRDSLYTSMPTLAGVAATESVTTSTQTEPPPAKCGDAEDVYYKSMPNLGSRNHVHQLHTYYQLGRGSSDGFIVPPNKDGTPPEGSSKGPAHLVTSL

From paper PMC9902482
